Experimental data taken from US20200330553A1.
These are yes or no findings as the source states them, for the method shown. In cells and extracts the contact can be indirect. Some entries that bind do so weakly or less than the wild type. Where a sequence is shown, tags or fusion partners need not be part of it.

Protein sequences, listed by entry. Tags and fused reporters are not part of them. Lines headed by an entry give the natural chain unless they say otherwise; changes in a name come on top.
UniProt Q99523: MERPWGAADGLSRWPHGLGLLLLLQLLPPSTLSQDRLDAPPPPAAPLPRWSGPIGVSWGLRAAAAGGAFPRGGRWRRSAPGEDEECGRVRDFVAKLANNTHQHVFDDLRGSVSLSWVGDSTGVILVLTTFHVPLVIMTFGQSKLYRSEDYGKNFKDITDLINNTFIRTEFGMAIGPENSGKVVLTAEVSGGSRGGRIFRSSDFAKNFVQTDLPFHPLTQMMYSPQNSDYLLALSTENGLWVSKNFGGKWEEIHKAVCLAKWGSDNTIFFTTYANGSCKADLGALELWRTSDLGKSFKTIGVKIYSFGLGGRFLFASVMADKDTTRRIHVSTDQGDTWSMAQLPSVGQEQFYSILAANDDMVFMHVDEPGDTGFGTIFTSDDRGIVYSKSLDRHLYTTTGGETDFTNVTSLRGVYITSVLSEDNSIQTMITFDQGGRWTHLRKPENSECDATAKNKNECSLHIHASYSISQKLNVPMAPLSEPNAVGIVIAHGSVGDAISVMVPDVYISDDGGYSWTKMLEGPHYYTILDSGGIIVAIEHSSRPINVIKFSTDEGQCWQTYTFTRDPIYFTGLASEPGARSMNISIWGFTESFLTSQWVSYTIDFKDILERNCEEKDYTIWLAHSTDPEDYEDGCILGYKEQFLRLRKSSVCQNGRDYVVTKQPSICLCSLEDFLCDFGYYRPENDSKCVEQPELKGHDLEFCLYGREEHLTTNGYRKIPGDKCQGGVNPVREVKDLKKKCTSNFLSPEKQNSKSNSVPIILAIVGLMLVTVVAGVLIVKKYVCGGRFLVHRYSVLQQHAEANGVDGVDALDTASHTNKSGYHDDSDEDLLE

Assays:
[1] = target: FLAG-sortilin full-length (Full) (human) (UniProt Q99523); experiment: co-immunoprecipitation with anti-FLAG M2, HEK293 cells
[2] = target: FLAG-sortilin ECD+TMD (human) (UniProt Q99523); experiment: as above

B1: 6×His-sortilin ICD+TMD (receptor)
chain: SAPHHHHHHNSVPIILAIVGLMLVTVVAGVLIVKKYVCGGRFLVHRYSVLQQHAEANGVDGVDALDTASHTNKSGYHDDSDEDLLE
binding [1]: binds | binding [2]: binds
